Some of the results follow. These are further read-outs of the screen, such as a control signal, another cell line or another target. No call is given for them. The list favours compounds with an active or inconclusive main result. Potencies come from curve fits of mixed quality, noted in brackets.
Experiment: qHTS Assay for Lipid Storage Modulators in Drosophila S3 Cells;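 for cell number change: cells counted by Cell Tracker Red CMTPX staining in the red channel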
Conditions: BODIPY lipid droplet fluorescence, 18-24 h; for cell number change: measured here: cell count max response, cells fed with added oleic acid
In short: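 Drosophila S3 cells got compounds at several concentrations plus oleic acid (400 uM solution). Laser-scanning cytometry with 488 nm excitation read lipid droplets at 500-530 nm and cells at 575-640 nm. Percent activity was relative to 20 uM Triacsin C.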

[1] = measured here: lipid fluorescence (Fed channel) AC50, cells fed with added oleic acid
[2] = measured here: cell number channel AC50, cells fed with added oleic acid

| Structure (SMILES) | cell number change [%] | AC50 [1] | AC50 [2] |
| --- | --- | --- | --- |
| CCOC(=O)c1cnn(-c2ncnc3sc(CC)cc23)c1N | 16.5 | 0.366 µM [rising, full curve, poor fit] |  |
| O=C(Cc1nc2ccccc2[nH]c1=O)c1ccccc1 | 109 |  | 8.2 µM [rising, partial curve] |
| CCSc1nnc(NC(=O)CSc2nc(C)cc(C)n2)s1 | 23.4 | 1.84 µM [falling, partial curve] |  |
| COc1ccc2nc(NC(=O)c3c(C)noc3C)sc2c1 | 12.9 | 0.651 µM [rising, partial curve, poor fit] | 0.164 µM [falling, full curve, poor fit] |
| O=C(CCS(=O)(=O)c1ccccc1)N(CCCN1CCOCC1)c1nc2ccc(F)cc2s1 | 124 |  | 20.6 µM [rising, partial curve] |
| O=C(CCNS(=O)(=O)c1ccccc1C(F)(F)F)N1CCN(S(=O)(=O)c2cccc(F)c2)CC1 | 16.7 |  |  |
| CCCCc1[nH]c(=O)c(C#N)c2c1CSC(C)(C)C2 | 2.87 | 0.517 µM [rising, full curve] |  |
| COc1ccc(S(=O)(=O)N2CCN(C(=O)NCc3ccc(C)cc3)CC2)cc1 | 19.8 |  |  |
| CCN(C(=O)COC(=O)c1cccc(S(=O)(=O)NCc2ccccc2)c1)c1ccccc1 | 80 |  | 29.1 µM [rising, single point] |
| Cc1ccc(S(=O)(=O)N(C)C)cc1NC(=O)COC(=O)C1CC1 | -50 |  | 0.13 µM [falling, full curve, poor fit] |
| CCCOc1ccc(N2C(=O)CC(N3CCN(c4ccccc4OC)CC3)C2=O)cc1 (stereo unspecified) | -7.38 | 7.31 µM [falling, single point] |  |
| CC(=O)n1c(Cl)c(NC(=O)CCl)c2ccccc21 | 16.8 | 0.082 µM [falling, full curve, poor fit] |  |
| Cc1cccc(OCCNC(=O)CSc2ccc(C(F)(F)F)cc2[N+](=O)[O-])c1 | 19.3 | 29.1 µM [rising, single point] |  |
| Cc1cnc(SCc2cnc(C)nc2N)nc1 | 7.01 | 2.06 µM [falling, partial curve] | 3.26 µM [falling, single point] |
| COc1ccc(CN(C)C(=O)C2CC(=O)N(c3ccc4c(c3)OCCO4)C2)c(OC)c1 (stereo unspecified) | -12.3 | 0.00461 µM [rising, full curve, poor fit] |  |
| Cc1cccc(NC(=O)Nc2cccc3ccccc23)c1 | 19.6 | 18.4 µM [rising, single point] |  |
| O=C(Nc1cccc(C(=O)N2CCN(c3ccccc3)CC2)c1)c1ccco1 | -15.9 | 0.58 µM [rising, full curve, poor fit] |  |
| O=C1C2CCCN2C(=O)N1CCN1CCN(CCO)CC1 (stereo unspecified) | 7.01 | 29.1 µM [falling, single point] |  |
| COc1ccc(C(=O)NCCc2c[nH]c3ccccc23)cc1S(=O)(=O)N1CCOCC1 | -18.9 | 0.651 µM [rising, single point] |  |
| CN(C)CCN(Cc1cccs1)S(=O)(=O)c1csc(C(N)=O)c1 | 5.07 |  |  |
| CC(CN1c2ccccc2Sc2ccccc21)N(C)C (stereo unspecified) | -12.5 | 14.6 µM [rising, partial curve] |  |

| Structure (SMILES) | cell number change [%] | AC50 [1] | AC50 [2] |
| --- | --- | --- | --- |
| O=C(Cc1cccs1)N(c1ccccc1)C1C=CS(=O)(=O)C1 (stereo unspecified) | 2.07 | 25.9 µM [falling, single point] |  |
| CC(Oc1ccc2c(-c3ccccc3)cc(=O)oc2c1)C(=O)N1CCC[C@@H]1C(N)=O (stereo partly specified) | -12.9 | 0.082 µM [rising, full curve, poor fit] |  |
| Cc1cc(/C=C2/NC(=O)N(c3ccccc3)C2=O)c(C)n1-c1cccnc1 | -35 | 29.1 µM [rising, single point] | 9.2 µM [falling, partial curve] |
| CC(=O)N(c1ccc(N(C(C)=O)S(=O)(=O)c2cccs2)cc1)S(=O)(=O)c1cccs1 | -73.4 | 16.4 µM [falling, partial curve] | 20.6 µM [falling, partial curve] |
| Cc1ccc2c(CC(=O)NCC(=O)Nc3c(C)cccc3C)coc2c1 |  | 5.17 µM [rising, single point] |  |
| CNC1(c2nnnn2-c2c(C)cccc2C)CCOC(C)(C)C1 (stereo unspecified) | 28.5 | 0.82 µM [rising, full curve, poor fit] |  |
| Cc1ccc(NC(=O)COC(=O)c2ccc([N+](=O)[O-])o2)cc1S(=O)(=O)N1CCCCCC1 | -36.4 |  | 0.13 µM [falling, full curve] |
| CC1CCN(C(=O)COC(=O)c2ccc(Br)o2)CC1 | -0.527 |  |  |
| Cc1ccc(C)c(N2CCN(C(=O)Cn3ncc4c([nH]c5ccc(C)cc54)c3=O)CC2)c1 | -30.7 |  | 36.6 µM [falling, single point] |
| Cc1nc(-c2ccccc2)sc1-c1nc(-c2cccs2)ncc1S(=O)(=O)c1ccccc1 | 14.7 | 0.411 µM [rising, single point] |  |
| O=[N+]([O-])c1cccc(S(=O)(=O)N2CCC(c3nc(-c4ccncc4)no3)CC2)c1 |  |  | 6.51 µM [rising, single point] |
| COc1cc(Cl)c(C)cc1NC(=O)c1ccc(S(C)(=O)=O)cc1 |  |  | 6.51 µM [falling, single point] |
| O=C(NCCc1ccccc1)C(=O)c1c(-c2ccccc2)[nH]c2ccccc12 | 32.6 |  | 18.4 µM [rising, single point] |
| COCCn1nnnc1C(C(C)C)N1CCN(C(=O)c2ccco2)CC1 (stereo unspecified) | 5.7 | 1.64 µM [falling, partial curve] |  |
| O=C(c1cc2nc(-c3ccco3)cc(C(F)(F)F)n2n1)N1CCN(c2ccc(F)cc2)CC1 | -3.98 | 0.00411 µM [rising, full curve, poor fit] |  |
| Cc1cc(C(=O)N/N=C2\CCCC(C)C2)n[nH]1 (stereo unspecified) | 14.4 | 18.4 µM [falling, single point] |  |
| Cc1ccc(SCC(=O)OCC(=O)NCC2CCCCC2)cc1C | 1.51 | 23.1 µM [falling, single point] |  |
| Cc1ccsc1/C=N/NC(=O)CNC(=O)c1ccc(S(=O)(=O)N(C)C)cc1 | -21.2 | 0.164 µM [falling, full curve, poor fit] | 0.146 µM [falling, full curve, poor fit] |
| O=c1c2cc(Br)ccc2nc(-c2cccc(Cl)c2)n1O | -28.7 | 32.6 µM [falling, single point] |  |
| CC1(C)CC(=O)C2=C(C1)NC(SCC(=O)Nc1ccccc1)=C(C#N)C2c1ccco1 (stereo unspecified) | -19.1 | 0.58 µM [rising, partial curve] |  |
| Cc1cc(=O)oc2c3c(cc(OCC(=O)NC(C)C)c12)OC(C)(C)CC3 | 7.83 | 0.13 µM [falling, full curve, poor fit] |  |

One compound at a time, as listed above.
O=C(NCCc1ccccc1)C(=O)c1c(-c2ccccc2)[nH]c2ccccc12 as listed: cell number change [%]: 32.6; AC50 [2]: 18.4 µM [rising, single point]
Cc1cc(=O)oc2c3c(cc(OCC(=O)NC(C)C)c12)OC(C)(C)CC3 as listed: cell number change [%]: 7.83; AC50 [1]: 0.13 µM [falling, full curve, poor fit]
Cc1ccc2c(CC(=O)NCC(=O)Nc3c(C)cccc3C)coc2c1 as listed: AC50 [1]: 5.17 µM [rising, single point]
O=C(c1cc2nc(-c3ccco3)cc(C(F)(F)F)n2n1)N1CCN(c2ccc(F)cc2)CC1 as listed: cell number change [%]: -3.98; AC50 [1]: 0.00411 µM [rising, full curve, poor fit]

The results go on.

| Structure (SMILES) | cell number change [%] | AC50 [1] | AC50 [2] |
| --- | --- | --- | --- |
| CCOC(=O)C1=C(C)NC(C)=C(C(=O)OCC)C1C(=O)OCC(=O)N(C)C1CCS(=O)(=O)C1 (stereo unspecified) | -27.5 |  |  |
| Cc1cccc2c1cnn2C(=O)Nc1ccc(Br)cc1F | 48.6 | 29.1 µM [rising, single point] | 2.91 µM [rising, partial curve] |
| COc1ccc(Nc2cc3n(c(=O)n2)CCc2cc(OC)c(OC)cc2-3)c(C)c1 | -1.39 | 3.66 µM [rising, partial curve] |  |
| O=C1CCc2cc(S(=O)(=O)NC(Cc3ccccc3)C(=O)NCC3CCCO3)ccc2N1 (stereo unspecified) | 11 | 9.2 µM [rising, partial curve, poor fit] |  |
| Cc1cccc(NS(=O)(=O)c2ccc(C)c(C(=O)N(C)C3CCN(C)CC3)c2)c1 |  | 8.2 µM [rising, partial curve] |  |
| COc1ccc(NC(=O)c2sccc2SCC#N)cc1 |  |  | 1.3 µM [rising, partial curve] |
| COc1cc(NC(=O)CN2C(=O)NC(C)(CCC(C)C)C2=O)cc(OC)c1 (stereo unspecified) | 44.9 |  | 16.4 µM [rising, partial curve] |
| O=C(O)COc1ccc(Br)cc1/C=N\Nc1ccccn1 | -8.77 |  | 2.31 µM [falling, single point] |
| CCCCOC(=O)c1ccc(NC(=O)/C=C/c2cccs2)cc1 | -17.6 |  |  |
| Clc1ccc(OCc2nn[nH]n2)cc1 | 19.6 | 2.91 µM [falling, single point] |  |
| COc1ccc(-c2[nH]ncc2CN(C)Cc2cccnc2)c(OC)c1 | 21.6 | 3.26 µM [rising, partial curve] |  |
| CCOC(=O)N1CCN(S(=O)(=O)c2ccc(OC)c3ccccc23)CC1 | -38.1 |  | 29.1 µM [falling, single point] |
| CC(=O)NC1CCCc2c1cnn2-c1ccc(C(C)(C)C)cc1 (stereo unspecified) | -48.6 |  | 13 µM [falling, partial curve] |
| COC(=O)[C@H](Cc1ccccc1)NC(=O)NCc1ccc(S(N)(=O)=O)cc1 | 0.934 |  |  |
| Cc1cc(CNC(=O)Cc2c(F)cccc2Cl)nn1C | 8.89 | 6.51 µM [falling, single point] |  |
| Cc1ccc(S(=O)(=O)N(C)C)cc1NC(=O)C(C)OC(=O)c1ccc2ccccc2n1 (stereo unspecified) | 10.7 | 6.51 µM [rising, single point] |  |
| c1ccc(-c2nn3c(-c4ccco4)nnc3s2)nc1 | 7.95 | 6.51 µM [falling, single point] |  |
| COc1cc(C)c(NC(=S)Nc2ccc(C)c(Cl)c2)cc1OC | 21.9 | 14.6 µM [rising, single point] |  |
| CCOc1ccc(S(=O)(=O)NNC(=O)c2cc3ccccc3o2)cc1 | -18.7 | 3.66 µM [falling, single point] |  |

Source: PubChem BioAssay AID2685 (National Center for Advancing Translational Sciences (NCATS), 2010)
